Data source: PubChem BioAssay AID1259424 (University of Nebraska Medical Center, 2018)
In all, the deposit lists about 14,000 reagents; below is an unselected part. 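Higher correlation or smaller distance means closer resemblance to KSR1 loss; control wells, including KSR1 knockdowns, recur on many plates.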 A reagent listed more than once was tested more than once; the source does not tell the runs apart. Not stated in the record: the time to read-out.

Screen: 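Rank knockdowns across the genome by resemblance to the KSR1 depletion profile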 (primary screen)
System: human HCT116 colon cancer cells
Knock-down reagent: siRNA pool against human genes, 50 nM
Measured: 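Six signature mRNAs by branched-DNA multiplex assay, scaled to two housekeeping genes and non-targeting median, log2; matched to mean KSR1 knockdown profile by Pearson correlation and euclidean distance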
Direction: mean correlation with KSR1 profile and KSR1 correlation: higher = expression change more like KSR1 knockdown; mean distance from KSR1 profile: higher = expression change less like KSR1 knockdown

gene symbol	mean correlation with KSR1 profile	mean distance from KSR1 profile	KSR1 correlation, replicate 1	KSR1 correlation, replicate 2	KSR1 correlation, replicate 3
APOL3 (GeneID 80833)	-0.141	1.53	0.0734	-0.426	-0.194
TAAR9 (GeneID 134860)	0.94	1.49	0.956	0.965	0.89
LHX5 (GeneID 64211)	0.175	1.4	0.549	0.496	-0.0795
HDC (GeneID 3067)	0.281	2.2	0.18	0.155	0.306
DGUOK (GeneID 1716)	-0.109	3.93	-0.164	-0.227	-0.235
CHERP (GeneID 10523)	0.24	2.08	0.0944	0.663	-0.303
JUND (GeneID 3727)	0.429	2.52	0.681	0.699	0.212
CCR4 (GeneID 1233)	0.779	1.23	0.807	0.711	0.697
CCDC14 (GeneID 64770)	-0.405	2.08	-0.64	-0.462	-0.108
AFAP1 (GeneID 60312)	0.544	0.881	0.718	0.684	0.253
EVA1B (GeneID 55194)	-0.629	2.86	-0.5	-0.568	-0.581
TP53TG5 (GeneID 27296)	0.473	1.43	0.39	0.381	0.186
ZEB2 (GeneID 9839)	0.294	1.95	-0.0687	-0.0842	0.538
LSR (GeneID 51599)	-0.208	4.35	-0.155	-0.198	-0.178
SPINK4 (GeneID 27290)	-0.169	2.83	-0.317	-0.147	-0.37
LMNB1 (GeneID 4001)	0.143	1.63	0.0722	-0.11	0.159
PRRG2 (GeneID 5639)	-0.305	1.47	-0.316	0.673	-0.414
CHIT1 (GeneID 1118)	0.422	4.82	0.431	0.439	0.253
KCNJ2 (GeneID 3759)	-0.404	2.26	-0.482	-0.147	-0.249
EFNA5 (GeneID 1946)	-0.049	1.91	0.0135	-0.00878	-0.188
STN1 (GeneID 79991)	0.46	1.66	0.201	0.637	0.462
TAS1R1 (GeneID 80835)	0.479	3.6	0.58	0.557	0.444
FH (GeneID 2271)	0.355	1.11	0.405	-0.11	0.503
OPN3 (GeneID 23596)	0.261	1.72	0.435	0.242	0.25
OR1E1 (GeneID 8387)	0.508	2.15	0.647	0.601	0.311
OXCT2 (GeneID 64064)	-0.511	1.37	-0.553	-0.531	-0.355
ZBTB3 (GeneID 79842)	0.392	1.67	0.488	0.316	0.444
DIP2C (GeneID 22982)	0.405	1.47	0.471	0.0396	0.578
MRPL39 (GeneID 54148)	-0.376	2.65	-0.598	-0.314	-0.353
SLC16A8 (GeneID 23539)	-0.3	2.71	-0.191	-0.279	-0.369
ZNF839 (GeneID 55778)	0.641	3.02	0.69	0.346	0.603
AGK (GeneID 55750)	0.413	1.78	0.579	0.33	0.00974
PFDN6 (GeneID 10471)	-0.408	1.4	-0.333	-0.625	-0.118
DCTD (GeneID 1635)	-0.00606	2.26	0.0537	-0.151	-0.0366
SENP3 (GeneID 26168)	-0.136	4.31	0.0804	-0.108	-0.409
MEIS1 (GeneID 4211)	0.0456	2.02	-0.274	-0.194	0.225
SULF2 (GeneID 55959)	-0.0342	2.5	0.00807	-0.156	-0.00997
ADCK2 (GeneID 90956)	-0.327	2.99	-0.378	-0.425	-0.44
ATG5 (GeneID 9474)	-0.111	1.87	-0.185	-0.154	-0.212
CRB1 (GeneID 23418)	0.289	1.84	0.296	0.11	0.265
RAX (GeneID 30062)	-0.222	2.04	-0.2	-0.265	-0.0474
RAX (GeneID 30062)	-0.137	2.12	-0.438	-0.231	-0.24
OS9 (GeneID 10956)	0.216	1.45	0.262	0.108	0.333
CLGN (GeneID 1047)	-0.321	3.12	-0.356	-0.513	0.0947
ZNF236 (GeneID 7776)	-0.451	2.58	-0.591	-0.426	-0.236
KANSL2 (GeneID 54934)	-0.828	2.09	-0.597	-0.819	-0.784
BACH1 (GeneID 571)	0.835	2.11	0.873	0.784	0.66
AGRP (GeneID 181)	-0.751	4.21	-0.722	-0.773	-0.82
CDC42BPG (GeneID 55561)	0.657	2.34	0.838	0.519	0.0769
OR2A4 (GeneID 79541)	0.819	1.46	0.832	0.748	0.941
PDE6H (GeneID 5149)	-0.518	2.45	-0.444	-0.34	-0.706
MAEA (GeneID 10296)	-0.279	1.82	-0.365	-0.353	0.0705
SLC31A1 (GeneID 1317)	-0.303	3.39	-0.471	0.0384	-0.521
ZNF750 (GeneID 79755)	0.665	1.52	0.677	0.76	0.622
MCCC2 (GeneID 64087)	0.627	0.918	0.684	0.499	0.675
TSKS (GeneID 60385)	-0.347	1.75	0.106	-0.534	-0.78
ERN1 (GeneID 2081)	0.0753	5.28	0.243	-0.158	-0.194
USE1 (GeneID 55850)	0.293	4.32	0.365	0.286	0.249
ODR4 (GeneID 54953)	-0.591	3.22	-0.238	-0.473	-0.58
NAB2 (GeneID 4665)	0.452	1.19	0.59	0.32	0.198
SLC7A1 (GeneID 6541)	-0.133	1.62	-0.43	-0.193	0.299
MC4R (GeneID 4160)	0.536	2.53	0.575	0.607	0.629
SPTLC2 (GeneID 9517)	0.54	1.75	0.334	0.501	0.47

Copied from the entries so far for reference:
gene symbol	mean correlation with KSR1 profile	mean distance from KSR1 profile	KSR1 correlation, replicate 1	KSR1 correlation, replicate 2	KSR1 correlation, replicate 3
JUND (GeneID 3727)	0.429	2.52	0.681	0.699	0.212
CCR4 (GeneID 1233)	0.779	1.23	0.807	0.711	0.697
CCDC14 (GeneID 64770)	-0.405	2.08	-0.64	-0.462	-0.108
AFAP1 (GeneID 60312)	0.544	0.881	0.718	0.684	0.253
EVA1B (GeneID 55194)	-0.629	2.86	-0.5	-0.568	-0.581
